Results are given in words; binding and its absence hold for the method and conditions named. For some of these results: Binding seen in cells or lysates may run through a third protein. Some results given as binding are weak or reduced against the parent protein; the word gives no strength. For some of these results: Sequences can lack the tags named with a protein. Blank lines part the entries; values can stand above or below the binder they belong to.
Columns and labels:
[1] = molecular target: T1, Rim-tagged PLXDC1 (human) (UniProt Q8IUK5); assay: co-IP; cotransfected cells lysed in 1% Triton X-100 in HBSS; Rim-tagged protein purified on anti-Rim antibody beads, 4 hr at 4°C; eluted at pH 2.3; copurified receptors detected by anti-HA or by antibody specific to PLXDC1 or PLXDC2
T1 sequence: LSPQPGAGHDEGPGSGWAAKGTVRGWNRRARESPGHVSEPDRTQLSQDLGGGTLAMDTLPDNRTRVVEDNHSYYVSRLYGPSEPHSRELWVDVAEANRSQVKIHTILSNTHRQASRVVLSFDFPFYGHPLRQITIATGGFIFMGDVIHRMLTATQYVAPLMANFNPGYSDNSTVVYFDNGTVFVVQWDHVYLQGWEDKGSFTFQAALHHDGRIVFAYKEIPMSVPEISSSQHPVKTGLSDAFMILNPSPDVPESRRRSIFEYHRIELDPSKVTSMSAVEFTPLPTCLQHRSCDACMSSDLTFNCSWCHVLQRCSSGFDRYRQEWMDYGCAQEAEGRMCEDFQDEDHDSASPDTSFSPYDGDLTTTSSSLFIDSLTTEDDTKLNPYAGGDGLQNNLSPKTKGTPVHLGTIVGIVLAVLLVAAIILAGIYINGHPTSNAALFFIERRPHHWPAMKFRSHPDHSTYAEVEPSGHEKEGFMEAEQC

By UniProt entry, the sequences of proteins in these tests, tags left out. Residues count along the entry.
UniProt Q6UX71, residues 31-529: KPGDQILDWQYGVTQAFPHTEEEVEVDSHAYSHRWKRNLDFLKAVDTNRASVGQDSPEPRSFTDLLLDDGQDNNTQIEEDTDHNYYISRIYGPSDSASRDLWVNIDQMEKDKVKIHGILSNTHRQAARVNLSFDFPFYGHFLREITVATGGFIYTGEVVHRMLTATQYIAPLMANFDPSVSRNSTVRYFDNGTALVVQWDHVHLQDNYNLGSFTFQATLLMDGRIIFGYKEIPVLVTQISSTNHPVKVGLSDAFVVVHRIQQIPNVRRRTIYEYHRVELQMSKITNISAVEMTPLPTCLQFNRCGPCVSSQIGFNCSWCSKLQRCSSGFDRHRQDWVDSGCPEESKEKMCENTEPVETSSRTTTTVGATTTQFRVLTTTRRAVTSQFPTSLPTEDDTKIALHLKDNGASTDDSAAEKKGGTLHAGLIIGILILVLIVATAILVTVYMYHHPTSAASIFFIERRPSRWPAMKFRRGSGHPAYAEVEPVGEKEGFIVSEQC

[2] = molecular target: Rim-tagged PLXDC2 (human) (UniProt Q6UX71); assay: as above
[3] = molecular target: PLXDC2 (plexin domain containing 2), epitope-tagged, on HEK293 cells (human) (UniProt Q6UX71); assay: binding of a biotinylated ligand to transfected cells, detected with streptavidin-alkaline phosphatase; biotinylated PEDF (20 nM) added to transfected or control HEK293 cells on a fibronectin-coated dish in HBSS, 10 mM HEPES pH 7.5, 2 mg/ml BSA, room temperature, 1 hour; washed, fixed, streptavidin-AP, NBT/BCIP; only the binder purified
[4] = molecular target: T2, PLXDC1 (plexin domain containing 1), epitope-tagged, on HEK293 cells (human) (UniProt Q8IUK5); assay: as above
T2 sequence: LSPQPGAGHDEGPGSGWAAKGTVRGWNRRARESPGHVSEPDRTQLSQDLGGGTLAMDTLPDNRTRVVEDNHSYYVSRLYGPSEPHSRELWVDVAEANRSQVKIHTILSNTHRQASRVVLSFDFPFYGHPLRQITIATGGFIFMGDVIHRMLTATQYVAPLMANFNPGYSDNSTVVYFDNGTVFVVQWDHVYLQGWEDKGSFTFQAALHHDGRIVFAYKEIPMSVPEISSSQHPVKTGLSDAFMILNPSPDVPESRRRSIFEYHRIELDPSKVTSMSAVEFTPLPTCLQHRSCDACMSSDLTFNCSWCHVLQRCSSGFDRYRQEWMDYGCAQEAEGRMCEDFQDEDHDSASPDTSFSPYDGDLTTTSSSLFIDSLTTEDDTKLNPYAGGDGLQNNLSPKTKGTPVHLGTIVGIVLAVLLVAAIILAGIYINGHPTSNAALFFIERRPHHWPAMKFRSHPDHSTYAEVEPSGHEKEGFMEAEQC

[5] = molecular target: T3, PLXDC1-C500S fused to CFP (human) (UniProt Q8IUK5); assay: FRET or BRET; as the CFP-YFP FRET in membranes, PEDF added to the membrane suspension at time 0, signal followed over time; only the binder purified
T3 sequence: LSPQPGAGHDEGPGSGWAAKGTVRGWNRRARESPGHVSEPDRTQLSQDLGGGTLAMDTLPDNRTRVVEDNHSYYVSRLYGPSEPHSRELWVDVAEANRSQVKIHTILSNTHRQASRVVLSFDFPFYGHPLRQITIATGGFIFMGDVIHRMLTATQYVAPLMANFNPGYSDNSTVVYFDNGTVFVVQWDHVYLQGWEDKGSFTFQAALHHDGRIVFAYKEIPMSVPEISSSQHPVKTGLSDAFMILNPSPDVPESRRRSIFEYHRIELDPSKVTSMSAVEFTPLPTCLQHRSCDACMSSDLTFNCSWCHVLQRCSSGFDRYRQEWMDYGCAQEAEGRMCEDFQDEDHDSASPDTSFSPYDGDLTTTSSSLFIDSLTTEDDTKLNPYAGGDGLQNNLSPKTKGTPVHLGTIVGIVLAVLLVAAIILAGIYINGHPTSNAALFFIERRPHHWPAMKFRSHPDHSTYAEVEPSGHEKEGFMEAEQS

[6] = molecular target: T4, PLXDC1 fused to Cyan Fluorescent Protein at the C-terminus (human) (UniProt Q8IUK5); assay: as above
T4 sequence: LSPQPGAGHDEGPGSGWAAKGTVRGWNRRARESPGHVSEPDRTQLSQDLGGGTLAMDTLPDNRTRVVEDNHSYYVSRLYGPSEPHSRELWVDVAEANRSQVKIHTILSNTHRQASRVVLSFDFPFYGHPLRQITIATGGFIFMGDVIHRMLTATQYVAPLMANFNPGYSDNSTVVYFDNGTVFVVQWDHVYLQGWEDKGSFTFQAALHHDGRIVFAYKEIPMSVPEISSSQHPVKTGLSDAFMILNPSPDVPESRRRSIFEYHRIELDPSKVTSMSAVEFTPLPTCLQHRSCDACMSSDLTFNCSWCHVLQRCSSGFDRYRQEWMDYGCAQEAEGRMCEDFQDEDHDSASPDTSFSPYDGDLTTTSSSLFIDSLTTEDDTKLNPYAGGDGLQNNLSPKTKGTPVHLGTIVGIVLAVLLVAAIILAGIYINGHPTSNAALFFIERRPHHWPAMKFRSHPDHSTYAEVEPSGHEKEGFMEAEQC

[7] = molecular target: T5, PLXDC1 in membranes of transfected HEK293 cells (copper phenanthroline crosslinking) (human) (UniProt Q8IUK5); assay: cross-linking; as the copper phenanthroline crosslinking, membranes incubated with PEDF for 3 hr at room temperature before oxidation; only the binder purified
T5 sequence: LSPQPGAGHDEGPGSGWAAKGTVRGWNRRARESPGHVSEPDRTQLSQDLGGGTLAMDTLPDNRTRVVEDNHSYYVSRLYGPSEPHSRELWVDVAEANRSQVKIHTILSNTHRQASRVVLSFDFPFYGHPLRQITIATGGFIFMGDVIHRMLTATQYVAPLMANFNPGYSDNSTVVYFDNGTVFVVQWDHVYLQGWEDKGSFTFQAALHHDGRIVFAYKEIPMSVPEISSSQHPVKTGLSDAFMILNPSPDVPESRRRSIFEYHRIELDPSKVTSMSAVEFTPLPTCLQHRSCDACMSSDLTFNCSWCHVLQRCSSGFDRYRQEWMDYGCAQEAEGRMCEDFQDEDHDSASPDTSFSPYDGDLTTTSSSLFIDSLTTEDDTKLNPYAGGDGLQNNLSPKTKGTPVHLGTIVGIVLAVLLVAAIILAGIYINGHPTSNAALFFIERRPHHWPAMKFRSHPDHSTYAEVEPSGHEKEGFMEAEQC

binding [1]: binds
B1: HA-tagged full length PLXDC1 (receptor, UniProt Q8IUK5 19-500)
chain: LSPQPGAGHDEGPGSGWAAKGTVRGWNRRARESPGHVSEPDRTQLSQDLGGGTLAMDTLPDNRTRVVEDNHSYYVSRLYGPSEPHSRELWVDVAEANRSQVKIHTILSNTHRQASRVVLSFDFPFYGHPLRQITIATGGFIFMGDVIHRMLTATQYVAPLMANFNPGYSDNSTVVYFDNGTVFVVQWDHVYLQGWEDKGSFTFQAALHHDGRIVFAYKEIPMSVPEISSSQHPVKTGLSDAFMILNPSPDVPESRRRSIFEYHRIELDPSKVTSMSAVEFTPLPTCLQHRSCDACMSSDLTFNCSWCHVLQRCSSGFDRYRQEWMDYGCAQEAEGRMCEDFQDEDHDSASPDTSFSPYDGDLTTTSSSLFIDSLTTEDDTKLNPYAGGDGLQNNLSPKTKGTPVHLGTIVGIVLAVLLVAAIILAGIYINGHPTSNAALFFIERRPHHWPAMKFRSHPDHSTYAEVEPSGHEKEGFMEAEQC

binding [2]: no binding
B2: untagged PLXDC1 (copurification) (receptor, UniProt Q8IUK5 19-500)
chain: LSPQPGAGHDEGPGSGWAAKGTVRGWNRRARESPGHVSEPDRTQLSQDLGGGTLAMDTLPDNRTRVVEDNHSYYVSRLYGPSEPHSRELWVDVAEANRSQVKIHTILSNTHRQASRVVLSFDFPFYGHPLRQITIATGGFIFMGDVIHRMLTATQYVAPLMANFNPGYSDNSTVVYFDNGTVFVVQWDHVYLQGWEDKGSFTFQAALHHDGRIVFAYKEIPMSVPEISSSQHPVKTGLSDAFMILNPSPDVPESRRRSIFEYHRIELDPSKVTSMSAVEFTPLPTCLQHRSCDACMSSDLTFNCSWCHVLQRCSSGFDRYRQEWMDYGCAQEAEGRMCEDFQDEDHDSASPDTSFSPYDGDLTTTSSSLFIDSLTTEDDTKLNPYAGGDGLQNNLSPKTKGTPVHLGTIVGIVLAVLLVAAIILAGIYINGHPTSNAALFFIERRPHHWPAMKFRSHPDHSTYAEVEPSGHEKEGFMEAEQC

binding [3]: binds | binding [4]: binds
B3: biotinylated PEDF (ligand, UniProt P36955 20-418)
chain: QNPASPPEEGSPDPDSTGALVEEEDPFFKVPVNKLAAAVSNFGYDLYRVRSSTSPTTNVLLSPLSVATALSALSLGAEQRTESIIHRALYYDLISSPDIHGTYKELLDTVTAPQKNLKSASRIVFEKKLRIKSSFVAPLEKSYGTRPRVLTGNPRLDLQEINNWVQAQMKGKLARSTKEIPDEISILLLGVAHFKGQWVTKFDSRKTSLEDFYLDEERTVRVPMMSDPKAVLRYGLDSDLSCKIAQLPLTGSMSIIFFLPLKVTQNLTLIEESLTSEFIHDIDRELKTVQAVLTVPKLKLSYEGEVTKSLQEMKLQSLFDSPDFSKITGKPIKLTQVEHRAGFEWNEDGAGTTPSPGLQPAHLTFPLDYHLNQPFIFVLRDTDTGALLFIGKILDPRGP
modifications: biotin (sulfo-NHS-SS-biotin; sites not stated)

binding [5]: binds | binding [6]: binds | binding [7]: binds
B4: Pigment Epithelium Derived Factor (PEDF), untagged (ligand, UniProt P36955 20-418)
chain: QNPASPPEEGSPDPDSTGALVEEEDPFFKVPVNKLAAAVSNFGYDLYRVRSSTSPTTNVLLSPLSVATALSALSLGAEQRTESIIHRALYYDLISSPDIHGTYKELLDTVTAPQKNLKSASRIVFEKKLRIKSSFVAPLEKSYGTRPRVLTGNPRLDLQEINNWVQAQMKGKLARSTKEIPDEISILLLGVAHFKGQWVTKFDSRKTSLEDFYLDEERTVRVPMMSDPKAVLRYGLDSDLSCKIAQLPLTGSMSIIFFLPLKVTQNLTLIEESLTSEFIHDIDRELKTVQAVLTVPKLKLSYEGEVTKSLQEMKLQSLFDSPDFSKITGKPIKLTQVEHRAGFEWNEDGAGTTPSPGLQPAHLTFPLDYHLNQPFIFVLRDTDTGALLFIGKILDPRGP
